Results taken from publication doi:10.1101/2024.09.04.610270.
No constants are given. Whether binding was seen depends on the method and setting. Some results given as binding are weak or reduced against the parent protein; the word gives no strength.

Amino acid sequences for entries named in this document (tags omitted).
UniProt Q94A52: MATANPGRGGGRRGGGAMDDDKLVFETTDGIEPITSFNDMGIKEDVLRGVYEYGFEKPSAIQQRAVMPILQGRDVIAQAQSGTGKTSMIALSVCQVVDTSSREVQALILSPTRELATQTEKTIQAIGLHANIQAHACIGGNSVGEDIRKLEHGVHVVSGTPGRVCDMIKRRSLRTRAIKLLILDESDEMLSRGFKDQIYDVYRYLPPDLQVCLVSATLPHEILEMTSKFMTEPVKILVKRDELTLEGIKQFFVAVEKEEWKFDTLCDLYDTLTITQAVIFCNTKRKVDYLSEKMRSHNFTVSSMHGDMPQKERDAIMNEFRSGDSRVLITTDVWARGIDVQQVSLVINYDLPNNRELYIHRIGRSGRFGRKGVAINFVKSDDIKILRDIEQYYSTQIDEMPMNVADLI

T1: arginine/serine-rich zinc knuckle-containing protein 32 (RS2Z32), native full-length, yeast two-hybrid bait (Arabidopsis thaliana) (UniProt Q9FYB7)
T1 sequence: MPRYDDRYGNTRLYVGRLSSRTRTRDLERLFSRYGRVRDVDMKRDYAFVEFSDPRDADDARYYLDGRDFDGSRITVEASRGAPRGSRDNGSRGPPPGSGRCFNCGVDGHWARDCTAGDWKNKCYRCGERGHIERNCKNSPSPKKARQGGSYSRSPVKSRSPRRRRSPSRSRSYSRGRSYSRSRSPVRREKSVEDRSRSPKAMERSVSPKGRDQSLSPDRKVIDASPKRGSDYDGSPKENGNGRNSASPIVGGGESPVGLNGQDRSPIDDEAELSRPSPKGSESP

T2: arginine/serine-rich zinc knuckle-containing protein 33 (RS2Z33), native full-length, yeast two-hybrid bait (Arabidopsis thaliana) (UniProt Q8VYA5)
T2 sequence: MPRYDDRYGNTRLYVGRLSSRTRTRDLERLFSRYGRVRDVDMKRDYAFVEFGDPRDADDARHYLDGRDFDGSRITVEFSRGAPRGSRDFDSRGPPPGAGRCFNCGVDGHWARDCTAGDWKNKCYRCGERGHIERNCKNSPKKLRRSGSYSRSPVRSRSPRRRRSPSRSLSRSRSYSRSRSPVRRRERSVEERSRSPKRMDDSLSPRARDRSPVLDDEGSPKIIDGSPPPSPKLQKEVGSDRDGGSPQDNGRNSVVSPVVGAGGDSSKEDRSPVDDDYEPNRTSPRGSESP

B1: RSZ21 (protein, UniProt O81127 1-187)
chain: MTRVYVGNLDPRVTERELEDEFKAFGVLRNVWVARRPPGYAFLEFDDERDALDAISALDRKNGWRVELSHKDKGGRGGGGGRRGGIEDSKCYECGELGHFARECRRGRGSVRRRSPSPRRRRSPDYGYARRSISPRGRRSPPRRRSVTPPRRGRSYSRSPPYRGSRRDSPRRRDSPYGRRSPYANGV
B2: SR34a (protein, UniProt A2RVS6 1-300)
chain: MSGRFSRSIYVGNLPGDIREHEIEDIFYKYGRIVDIELKVPPRPPCYCFVEFEHSRDAEDAIKGRDGYNLDGCRLRVELAHGGRGQSSSDRRGGYGGGGSGYGGGGGGGGSARFGVSRHSEFRVIVRGLPSSASWQDLKDHMRKAGDVCFAEVTRDSDGTYGVVDYTNYDDMKYAIRKLDDTEFRNPWARGFIRVKKYESSRSRSRSPSRSRSRSRSRSRSRGRGRSHSRSRSLSRSKSPRKDLSKSPRRSLSRSISKSRSPSPDKKKSPPRAMSRSKSRSRSRSRSPSKSPPKVREGSV
B3: SCL28 (protein, UniProt Q1PDV2 1-236)
chain: MARARSRSRSYSPRPRDRSPPRERKGYDDNRLRERPSSRDHESSGPSGLLIRNLPLDARPNDLRDSFERFGPLKDIYLPRNYYTGEPRGFGFVKYRYAEDAAEAMKRMNHKVIGGREIAIVFAEENRKTPQEMRTTNGTSGRHGDYKRTSHRSPRRRYRSHSRSRSPPRRESRHSKVREDDLYSPRRRSRSISRSPLPRNEREYKSRNCRSPREERVLTPIRSRCLSRSRSRSLSR
B4: SCL30a (protein, UniProt Q9LHP2 1-262)
chain: MRGRSYTPSPPRGYGRRGRSPSPRGRFGGSRDSDLPTSLLVRNLRHDCRQEDLRRPFEQFGPVKDIYLPRDYYTGDPRGFGFIQFMDPADAAEAKHQMDGYLLLGRELTVVFAEENRKKPTEMRTRDRGGRSNRFQDRRRSPPRYSRSPPPRRGRRSRSRSRGYNSPPAKRHQSRSVSPQDRRYEKERSYSRSPPHNGSRVRSGSPGRVKSHSRSPRRSVSPRKNRSYTPEQARSQSPVPRQSRSPTPVPRGAQNGDRSPSQ
B5: SR34 (protein, UniProt O22315 1-303)
chain: MSSRSSRTVYVGNLPGDIREREVEDLFSKYGPVVQIDLKVPPRPPGYAFVEFDDARDAEDAIHGRDGYDFDGHRLRVELAHGGRRSSDDTRGSFNGGGRGGGRGRGDGGSRGPSRRSEFRVLVTGLPSSASWQDLKDHMRKGGDVCFSQVYRDARGTTGVVDYTCYEDMKYALKKLDDTEFRNAFSNGYVRVREYDSRKDSRSPSRGRSYSKSRSRSRGRSVSRSRSRSRSRSRSPKAKSSRRSPAKSTSRSPGPRSKSRSPSPRRSRSRSRSPLPSVQKEGSKSPSKPSPAKSPIHTRSPSR
B6: SCL33 (protein, UniProt Q9SEU4 1-287)
chain: MRGRSYTPSPPRGYGRRGRSPSPRGRYGGRSRDLPTSLLVRNLRHDCRQEDLRKSFEQFGPVKDIYLPRDYYTGDPRGFGFVQFMDPADAADAKHHMDGYLLLGRELTVVFAEENRKKPTEMRARERGGGRFRDRRRTPPRYYSRSRSPPPRRGRSRSRSGDYYSPPPRRHHPRSISPREERYDGRRSYSRSPASDGSRGRSLTPVRGKSRSLSPSPRRSISRSPRRSRSPSPKRNRSVSPRRSISRSPRRSRSPRRSRRSYTPEPARSRSQSPHGGQYDEDRSPSQ
B7: MOS14 (protein, UniProt Q8GUL2 1-958)
chain: MEHQNAVKEALNALYHHPDDTVRVHADRWLQNFQGTLDAWQVADNLLHDSSSNLETLIFCSQTLRSKVQRDFEELPPGAFQKLRQSLTTLLKKFHKGPPKVRTQISIAVAALAVHVPAADWGDGGIISWLRDEMHMHPEYVPGFLELLTVLPEETFNYKIAARPDRRRQFEKELTSQMEAALSILSACLKISELKEQVLEAFASWLRLRHGIPGTVLACHPLVHAALSSLNCDPLSEASVNVISELIHHTASPSSGGISAQTPLIQVIVPQILSLQAHLRDSSKDEEDVKAIGRLFADVGDSYVELIATGSDEPMVIVHALLEVTAHPEFDIASMTFNFWHSLQLMLTKRESYSSLGSEASIEVERNRRLHIFQPAYQSLVSLVGFRVQYPEDYQGLSYEDLKEFKQTRYAVADVLIDAALILGGDTTLKILYMKLLEANAQTGNNFQDWRPAEAILFCIWAISNYVSVVEAEVMPQVMALLQNLPQQAQLLQTACLLVGAYSKWLNAAPASVSILPSIIRILMSGMGTSEDCAAAAALAFRHTCDDCRKNLCGYFEDLFNIYCMAINGGGGYKVSAEDSLNLVEALGMVVTELPLDQAKGALEKLCFSAASPLEEAAKEDLEKKHARELTVHIDRFAFLFRYVNHPEAVAAEINKHWAIFRVIFDARPWDMRTMESLCRACKYAVRTSGRYIIDTIGEMLEKIQFHYQQHHQPCFLYLSSEVIKIFGSDPSCAVYLKNLIETLFAHTTCLMTSIKEVTARPDIADDCFLLASRCLRYCPHLFIPSPIFPALVNCAMIGITVQHREACHSILTFLTDIFDLEKSVNEEQFVRIRDNIIIPRGATITRILIASLAGALPSSRLDTVTYSLLALTRTYRLQAVSWAKESVSLIPRTALTETESTKFLQALSDIAYGADVNSLIGQVEELSDVCRRNRTVQELVQAALKPLELNLVTAPVS
B8: AFC1 (enzyme, UniProt P51566 1-467)
chain: MQSSVYRDKASSIAMILETQRNVEFPHRIVDKRPRKRPRLTWDAAPPLLPPPPPPTVFQPPLYYGPEFASGLVPNFVYPNMFYNGLPRQGSPPWRPDDKDGHYVFVVGDTLTPRYQILSKMGEGTFGQVLECFDNKNKEVVAIKVIRSINKYREAAMIEIDVLQRLTRHDVGGSRCVQIRNWFDYRNHICIVFEKLGPSLYDFLRKNSYRSFPIDLVRELGRQLLESVAYMHDLRLIHTDLKPENILLVSSEYIKIPDYKFLSRPTKDGSYFKNLPKSSAIKLIDFGSTTFEHQDHNYIVSTRHYRAPEVILGVGWNYPCDLWSIGCILVELCSGEALFQTHENLEHLAMMERVLGPLPPHMVLRADRRSEKYFRRGAKLDWPEGATSRDSLKAVWKLPRLPNLIMQHVDHSAGDLIDLLQGLLRYDPTERFKAREALNHPFFTRSREQSIPPFNPNPHPFLYNQKN
B9: AFC2 (enzyme, UniProt P51567 1-427)
chain: MEMERVHEFPHTHMDRRPRKRARLGWDVLPQATKAQVGMFCGQEIGNISSFASSGAPSDNSSSLCVKGVARNGSPPWREDDKDGHYIFELGDDLTPRYKIYSKMGEGTFGQVLECWDRERKEMVAVKIVRGVKKYREAAMIEIEMLQQLGKHDKGGNRCVQIRNWFDYRNHICIVFEKLGSSLYDFLRKNNYRSFPIDLVREIGWQLLECVAFMHDLRMIHTDLKPENILLVSSDYVKIPEYKGSRLQRDVCYKRVPKSSAIKVIDFGSTTYERQDQTYIVSTRHYRAPEVILGLGWSYPCDVWSVGCIIVELCTGEALFQTHENLEHLAMMERVLGPFPQQMLKKVDRHSEKYVRRGRLDWPDGATSRDSLKAVLKLPRLQNLIMQHVDHSAGELINMVQGLLRFDPSERITAREALRHPFFARRR
B10: AFC3 (enzyme, UniProt P51568 1-400)
chain: MIANGFESMDKERVRKRPRMTWDEAPAEPEAKRAVIKGHGSDGRILSPPLRDDDRDGHYVFSLRDNLTPRYKILSKMGEGTFGRVLECWDRDTKEYVAIKIIRSIKKYRDAAMIEIDVLQKLVKSDKGRTRCVQMKNWFDYRNHICIVFEKLGPSLFDFLKRNKYSAFPLALVRDFGCQLLESVAYMHELQLVHTDLKPENILLVSSENVKLPDNKRSAANETHFRCLPKSSAIKLIDFGSTVCDNRIHHSIVQTRHYRSPEVILGLGWSYQCDLWSIGCILFELCTGEALFQTHDNLEHLAMMERALGPLPEHMTRKASRGAEKYFRRGCRLNWPEGANSRESIRAVKRLDRLKDMVSKHVDNTRSRFADLLYGLLAYDPSERLTANEALDHPFFKSSS
B11: Cyp65 (protein, UniProt Q9FJX0 1-595)
chain: MGKKQHSKDRMFITKTEWATEWGGAKSKENRTPFKSLPYYCCALTFLPFEDPVCTIDGSVFEITTIVPYIRKFGKHPVTGAPLKGEDLIPLIFHKNSEGEYHCPVLNKVFTEFTHIVAVKTTGNVFCYEAIKELNIKTKNWKELLTEEPFTRADLITIQNPNAVDGKVTVEFDHVKNGLKIDDEELKKMNSDPAYNINVSGDIKHMLADLGTDKAKEIALHGGGGNKARNERAAAIAAILESRSKIKEVSKAEQPKQTYSVVDAASASVFGRSADAAKAGSSDKTAARIAMHMAGDRTPVNSKMVKSRYSSGAASRSFTSSAFTPVTKNDFELIKVEKNPKKKGYVQFQTTHGDLNIELHCDIAPRACENFITLCERGYYNGVAFHRSIRNFMIQGGDPTGTGKGGESIWGKPFKDEPNSKLLHSGRGVVSMANSGPHTNGSQFFVLYKSATHLNYKHTVFGGVVGGLATLAAMENVPVDESDRPLEEIKIIEASVFVNPYTELDEEEEKEKAEKEKNEDKDIEKIGSWYSNPGSGTTEAGAGGGGVGKYLKAMSSTATKDTKGSLDSDISTIGVSKKRKTTASASTGFKDFSSW

Experiments:
[1] = target: T1, arginine/serine-rich zinc knuckle-containing protein 32 (RS2Z32), native full-length, yeast two-hybrid bait (Arabidopsis thaliana); test: two-hybrid
[2] = target: T2, arginine/serine-rich zinc knuckle-containing protein 33 (RS2Z33), native full-length, yeast two-hybrid bait (Arabidopsis thaliana); test: two-hybrid

Molecule | binding [1] | binding [2]
eIF4AIII (from UniProt Q94A52 1-408) | no binding | no binding
B1 | binds weakly | binds weakly
B2 | binds weakly | binds weakly
B3 | binds weakly | binds weakly
B4 | binds weakly | binds weakly
B5 | binds | binds
B6 | binds | binds
B7 | binds | binds
B8 | no binding | no binding
B9 | no binding | no binding
B10 | no binding | no binding
B11 | no binding | no binding
